# Assay results as given in article PMC5996148.
# The chains behind the UniProt entries cited, without tags or fusion partners. Where a name states a change or a piece, a line headed by the entry shows the natural chain unless it says otherwise.
# UniProt Q13283: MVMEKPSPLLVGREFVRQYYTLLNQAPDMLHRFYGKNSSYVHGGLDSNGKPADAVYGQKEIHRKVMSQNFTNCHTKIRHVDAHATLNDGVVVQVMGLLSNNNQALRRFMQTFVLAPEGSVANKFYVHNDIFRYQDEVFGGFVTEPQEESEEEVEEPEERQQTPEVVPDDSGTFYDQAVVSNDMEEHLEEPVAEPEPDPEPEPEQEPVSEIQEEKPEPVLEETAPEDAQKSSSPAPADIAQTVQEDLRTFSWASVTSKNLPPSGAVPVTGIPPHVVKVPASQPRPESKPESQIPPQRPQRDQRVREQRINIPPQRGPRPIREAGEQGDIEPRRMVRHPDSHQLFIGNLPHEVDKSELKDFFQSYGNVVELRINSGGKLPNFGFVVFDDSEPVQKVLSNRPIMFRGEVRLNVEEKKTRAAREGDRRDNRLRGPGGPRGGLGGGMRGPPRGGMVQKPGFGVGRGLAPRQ
# The other results are listed elsewhere or left out. For some of these results: Construct or isoform of the protein are uncertain.
# Assays:
# Assay in all cases: protein microarray (ProtoArray v5.0), streptavidin-Alexa Fluor 647
# Details in all cases: 3'-biotin; 20 mM Tris (pH 7.5), 5 mM MgCl2, 100 mM KCl, 0.1% Tween-20, A/T-rich and random oligonucleotide blockers; temperature not stated; high values mean tight binding
# [1] = test system: FUT2 (human)
# [2] = test system: FXC1 (human)
# [3] = test system: FXYD1 (human)
# [4] = test system: FXYD7 (human)
# [5] = test system: FYCO1 (human)
# [6] = test system: FYVE, RhoGEF and PH domain-containing protein 2 (human)
# [7] = test system: Ferritin heavy chain (human)
# [8] = test system: G protein-coupled receptor kinase 6 (human)
# [9] = test system: G1/S-specific cyclin-D1 (human)
# [10] = target: G3BP1 (UniProt Q13283)
sequence,measurement,setting,value
GGGGACAGGGGTATGGGGAGGGG [G4-3 biotinylated (CtG)],binding signal,[1],-0.307 z-score
same,binding signal,[2],-0.343 z-score
same,binding signal,[3],-0.324 z-score
same,binding signal,[4],-0.312 z-score
same,binding signal,[5],-0.31 z-score
same,binding signal,[6],-0.341 z-score
same,binding signal,[7],-0.329 z-score
same,binding signal,[8],6.21 z-score
same,binding signal,[9],-0.335 z-score
same,binding signal,[10],4.67 z-score
